Test results: article PMC9406036
These are yes or no findings as the source states them, for the method shown. Some binding calls cover weakened binding; strength is not graded here.

Protein sequences, listed by entry. Tags and fused reporters are not part of them. Lines headed by an entry give the natural chain unless they say otherwise; changes in a name come on top.
UniProt P02454: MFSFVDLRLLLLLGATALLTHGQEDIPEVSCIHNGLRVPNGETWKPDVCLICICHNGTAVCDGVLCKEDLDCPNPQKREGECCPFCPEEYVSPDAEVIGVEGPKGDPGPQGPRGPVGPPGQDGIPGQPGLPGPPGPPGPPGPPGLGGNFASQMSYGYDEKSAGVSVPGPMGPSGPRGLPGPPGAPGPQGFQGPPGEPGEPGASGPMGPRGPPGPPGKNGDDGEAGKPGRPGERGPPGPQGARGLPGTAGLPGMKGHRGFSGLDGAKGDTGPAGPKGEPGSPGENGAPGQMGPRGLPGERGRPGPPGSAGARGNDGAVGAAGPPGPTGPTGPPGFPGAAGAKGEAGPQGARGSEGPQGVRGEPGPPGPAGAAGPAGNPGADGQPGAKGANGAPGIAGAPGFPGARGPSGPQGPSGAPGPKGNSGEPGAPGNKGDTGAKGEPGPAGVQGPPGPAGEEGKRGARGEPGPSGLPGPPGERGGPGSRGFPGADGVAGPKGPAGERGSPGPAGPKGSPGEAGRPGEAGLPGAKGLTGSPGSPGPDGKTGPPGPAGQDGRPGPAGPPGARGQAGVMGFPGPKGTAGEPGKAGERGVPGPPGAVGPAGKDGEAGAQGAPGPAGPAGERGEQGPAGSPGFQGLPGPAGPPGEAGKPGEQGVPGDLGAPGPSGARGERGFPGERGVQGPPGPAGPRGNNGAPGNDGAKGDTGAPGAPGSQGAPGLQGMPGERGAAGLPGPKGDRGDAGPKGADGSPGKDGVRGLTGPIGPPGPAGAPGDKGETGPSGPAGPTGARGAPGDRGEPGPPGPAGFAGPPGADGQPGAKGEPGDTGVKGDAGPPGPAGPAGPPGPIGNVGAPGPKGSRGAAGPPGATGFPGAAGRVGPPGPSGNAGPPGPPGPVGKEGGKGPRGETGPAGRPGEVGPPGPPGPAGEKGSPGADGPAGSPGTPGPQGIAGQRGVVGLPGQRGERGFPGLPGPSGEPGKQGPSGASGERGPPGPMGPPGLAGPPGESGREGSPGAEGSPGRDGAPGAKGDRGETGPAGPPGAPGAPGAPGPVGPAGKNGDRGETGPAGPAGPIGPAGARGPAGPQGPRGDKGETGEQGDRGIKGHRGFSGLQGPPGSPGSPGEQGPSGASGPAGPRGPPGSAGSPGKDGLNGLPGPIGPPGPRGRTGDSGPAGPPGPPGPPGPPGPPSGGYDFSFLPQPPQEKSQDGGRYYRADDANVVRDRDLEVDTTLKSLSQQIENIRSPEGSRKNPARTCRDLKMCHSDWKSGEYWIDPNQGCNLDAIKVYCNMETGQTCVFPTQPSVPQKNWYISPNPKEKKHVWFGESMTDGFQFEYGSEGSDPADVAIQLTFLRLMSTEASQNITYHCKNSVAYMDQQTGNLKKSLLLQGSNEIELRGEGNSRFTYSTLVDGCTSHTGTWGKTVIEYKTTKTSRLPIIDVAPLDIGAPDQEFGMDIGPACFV
UniProt P02466: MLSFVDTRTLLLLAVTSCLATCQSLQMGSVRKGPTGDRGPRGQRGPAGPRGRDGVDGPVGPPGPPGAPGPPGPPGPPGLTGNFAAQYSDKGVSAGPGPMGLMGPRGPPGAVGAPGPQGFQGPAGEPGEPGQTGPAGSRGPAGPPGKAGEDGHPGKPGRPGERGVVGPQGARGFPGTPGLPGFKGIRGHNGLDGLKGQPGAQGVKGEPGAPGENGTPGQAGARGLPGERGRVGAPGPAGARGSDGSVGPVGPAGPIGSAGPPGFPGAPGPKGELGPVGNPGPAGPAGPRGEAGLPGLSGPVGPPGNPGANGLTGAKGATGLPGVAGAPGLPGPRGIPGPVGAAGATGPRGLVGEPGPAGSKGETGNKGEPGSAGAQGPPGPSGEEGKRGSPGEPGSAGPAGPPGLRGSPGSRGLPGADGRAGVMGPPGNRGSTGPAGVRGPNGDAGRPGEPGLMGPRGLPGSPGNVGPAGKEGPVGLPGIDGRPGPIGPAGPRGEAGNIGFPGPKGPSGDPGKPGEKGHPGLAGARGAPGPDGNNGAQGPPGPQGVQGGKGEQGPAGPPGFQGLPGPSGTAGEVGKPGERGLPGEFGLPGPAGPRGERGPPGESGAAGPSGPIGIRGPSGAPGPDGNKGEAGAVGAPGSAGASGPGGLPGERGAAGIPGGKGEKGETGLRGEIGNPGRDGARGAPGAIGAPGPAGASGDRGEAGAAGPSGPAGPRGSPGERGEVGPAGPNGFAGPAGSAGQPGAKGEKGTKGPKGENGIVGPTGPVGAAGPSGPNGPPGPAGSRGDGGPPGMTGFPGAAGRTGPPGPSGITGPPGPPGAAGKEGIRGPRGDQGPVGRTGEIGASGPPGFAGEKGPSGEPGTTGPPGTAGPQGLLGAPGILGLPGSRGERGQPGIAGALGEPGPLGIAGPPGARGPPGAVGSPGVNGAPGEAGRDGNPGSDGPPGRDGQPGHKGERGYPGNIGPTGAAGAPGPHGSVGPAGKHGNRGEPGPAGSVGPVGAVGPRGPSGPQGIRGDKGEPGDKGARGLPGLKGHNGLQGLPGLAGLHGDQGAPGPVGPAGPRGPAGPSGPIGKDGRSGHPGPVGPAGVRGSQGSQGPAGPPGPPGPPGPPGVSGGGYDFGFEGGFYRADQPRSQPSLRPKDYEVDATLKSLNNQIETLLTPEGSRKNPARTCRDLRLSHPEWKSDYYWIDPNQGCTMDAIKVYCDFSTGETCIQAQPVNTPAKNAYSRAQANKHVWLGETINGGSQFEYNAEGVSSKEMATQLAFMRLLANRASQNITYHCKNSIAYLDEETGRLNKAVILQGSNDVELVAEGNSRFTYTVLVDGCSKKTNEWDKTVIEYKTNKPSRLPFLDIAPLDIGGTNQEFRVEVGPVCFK

Tests used:
[1] = biological target: T1, type I collagen from rat tail (rat) (UniProt P02454+P02466); assay: ELISA; unfractionated WT-MT1-MMP-ED (all oligomeric forms in the same sample) in serial dilution on wells coated with 10 µg/mL type I collagen; 1 h, 20 °C; 50 mM Tris pH 7.4, 150 mM NaCl, 5 mM CaCl2, 0.05% Tween; detected with anti-His-HRP; both purified
[2] = biological target: T1, type I collagen from rat tail (rat); assay: ELISA; dimeric fraction of WT-MT1-MMP-ED (gel filtration peak #2) in serial dilution on wells coated with 10 µg/mL type I collagen; 1 h, 20 °C; 50 mM Tris pH 7.4, 150 mM NaCl, 5 mM CaCl2, 0.05% Tween; detected with anti-His-HRP; both purified
[3] = biological target: T1, type I collagen from rat tail (rat); assay: ELISA; higher oligomeric fraction of WT-MT1-MMP-ED (gel filtration peak #1) in serial dilution on wells coated with 10 µg/mL type I collagen; 1 h, 20 °C; 50 mM Tris pH 7.4, 150 mM NaCl, 5 mM CaCl2, 0.05% Tween; detected with anti-His-HRP; both purified
[4] = biological target: T1, type I collagen from rat tail (rat); assay: ELISA; monomeric fraction of WT-MT1-MMP-ED (gel filtration peak #3) in serial dilution on wells coated with 10 µg/mL type I collagen; 1 h, 20 °C; 50 mM Tris pH 7.4, 150 mM NaCl, 5 mM CaCl2, 0.05% Tween; detected with anti-His-HRP; both purified

binding [1]: binds
binding [2]: binds
binding [3]: binds
binding [4]: binds weakly
Substance: WT-MT1-MMP ectodomain (membrane type 1 matrix metalloproteinase, MMP-14), secreted active form without the prodomain (from UniProt P50281 112-541) (enzyme)
